Assay [1] has as its target hemagglutinin (HA)-tagged TLE3 (UniProt Q04726). Description: co-IP; co-expression of WT C/EBPβ or mutants (R193A, R193L), TLE3, with or without CARM1 (Figure 5E).
Assay [2] shares this target. Description: co-IP; WT and mutant C/EBPβ with HA-tagged TLE3; pull down of TLE3 by immunoprecipitation (Figure 5C).

Chains of the proteins cited; added tags and fusions are not shown. Lines headed by an entry give the natural chain unless they say otherwise; changes in a name come on top.
UniProt Q04726, whole entry: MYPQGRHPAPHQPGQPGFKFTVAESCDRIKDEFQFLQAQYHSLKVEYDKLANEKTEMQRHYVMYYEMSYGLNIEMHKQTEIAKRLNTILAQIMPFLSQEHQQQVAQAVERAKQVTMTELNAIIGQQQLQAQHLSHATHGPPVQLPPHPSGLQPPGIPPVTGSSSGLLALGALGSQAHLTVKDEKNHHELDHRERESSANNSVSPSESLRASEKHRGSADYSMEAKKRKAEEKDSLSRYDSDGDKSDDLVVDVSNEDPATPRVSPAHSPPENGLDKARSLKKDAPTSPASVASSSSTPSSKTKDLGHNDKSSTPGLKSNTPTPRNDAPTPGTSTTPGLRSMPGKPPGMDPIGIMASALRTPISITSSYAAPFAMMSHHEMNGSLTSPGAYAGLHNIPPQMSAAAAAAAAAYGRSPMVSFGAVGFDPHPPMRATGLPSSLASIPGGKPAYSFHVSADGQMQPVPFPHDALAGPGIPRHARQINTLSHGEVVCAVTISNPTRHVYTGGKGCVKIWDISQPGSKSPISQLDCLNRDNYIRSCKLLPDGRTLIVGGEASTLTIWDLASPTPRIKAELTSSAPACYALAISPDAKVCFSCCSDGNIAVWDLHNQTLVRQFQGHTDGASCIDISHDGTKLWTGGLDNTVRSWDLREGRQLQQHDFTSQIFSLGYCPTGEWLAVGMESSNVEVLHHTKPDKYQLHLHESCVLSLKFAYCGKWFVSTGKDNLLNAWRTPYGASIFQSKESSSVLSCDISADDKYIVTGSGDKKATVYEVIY

Positions count from the first letter of the chain named. Numbers in names are those of the source. No constants are given. Whether binding was seen depends on the method and setting. Binding seen in cells or lysates may run through a third protein. Some entries that bind do so weakly or less than the wild type. Where a sequence is shown, tags or fusion partners need not be part of it.

B1: FLAG-tagged C/EBPβ R193L (protein, UniProt Q05826 1-328)
chain: MQRLVAWDAACLPIQPPAFKSMEVANFYYEADCLAALNKLHPRAAGGRSMTELTVGDHERAIDFSPYLDPLAASQQPAQPPPPAAAAGGNFEPACSSGGQDFLSDLFAEDYKGSGGGKKPDYTYISLTRHGHPCGSQSHKPGVLPGCFPPQIVETKVEPVFETLDSCKGPRKEEGGAGPGPGGMSSPYGSTVLSYLGYQSVPSGSSGNLSTSSSSSPPGTPNPSESSKSAAGAGGYSGPPAGKNKPKKCVDKHSDEYKLRRERNNIAVRKSRDKAKMRNLETQHKVLELTAENERLQKKVEQLSRELSTLRNLFKQLPEPLLASSPRC
With B1, the binding entry in assay [1] and in assay [2] was “binds” each time.

B2: FLAG-tagged C/EBPβ R193A (protein, UniProt Q05826 1-328)
chain: B1 chain with L193A
B2: the binding result in assay [1] and in assay [2] was “no binding” throughout.

Source of the values: paper PMC6424098.
